Primary screen of a compound library

Each number is a percent effect as filed. The record does not define 0% and 100%; most values in the screen are far below 50% and negative numbers occur (in some assays of this library far below -100). The compounds are a random part of those screened. A dash means the value is not listed here; it may have been measured.

Mtb growth Cornell: 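Whole-cell assay for inhibitors of Mycobacterium tuberculosis growth, labelled Cornell in the record; the read-out is not stated. The concentration is filed as 10 mM, unlikely as a test dose, so the dose is not known. The record gives no direction; compounds strong in two other growth screens of this library score well above the rest, so higher reads as stronger inhibition. About 53,000 compounds were tested under these conditions; 1.7% (about 900) showed 50% or more at least once.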
Mtb heat-shock: 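Assay on Mycobacterium tuberculosis, filed only as a heat shock assay from Cornell; the read-out is not stated. The concentration is filed as 10 mM, unlikely as a test dose, so the dose is not known. Direction is inferred from retests: higher values go with stronger inhibition. Size under these conditions: about 69,000 compounds, about 930 of them at 50% or above in at least one test.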

structure | Mtb growth Cornell | Mtb heat-shock
Cc1n[nH]c(C)c1-c1nccnc1CC1CCN(S(C)(=O)=O)C1 (stereo unspecified) | -21.95% | -4.99%
CC(C(N)=O)n1nc(-c2cccs2)cc(N)c1=O (stereo unspecified) | -30.4% | 10.66%
CC(C)Nc1nc(N2CCCC2)nc2c1CN(c1ncc(F)cn1)CC2 | 82.11% | 18.45%
Cc1nn(CCO)cc1CN1CCC(C(C)N2CCCC2)CC1 (stereo unspecified) | -10.28% | -1.777%
Cc1nc(C2CCCN(C(=O)c3cc(Cl)c4c(c3)OCO4)C2)no1 (stereo unspecified) | 12.39% | -0.4694%
O=C(NCC(O)COc1ccc(C(F)(F)F)cc1)Nc1nncs1 (stereo unspecified) | 22.6% | 34.75%
[H][C@@]12CS(=O)(=O)C[C@]1([H])N(Cc1cc(C)c(O)c(C)c1)CCN2CC1CC1 | 106.4% | -35.54%
CCOC(C(=O)N1CCn2c(nnc2C(C)C)C1)c1ccccc1 (stereo unspecified) | -103.1% | -36.76%
OCC1(NCc2cccc(-n3cccn3)c2)CCOCC1 | 11.61% | -7.687%
Cc1nn(C)cc1-c1ccnc(NCCN)n1 | - | 7.068%
Cc1nc(C2CCCN2C(=O)Cc2ccc(F)cc2)nc(O)c1C (stereo unspecified) | -1.887% | -6.375%
COc1ccc(-c2nnc(SC(C)C(=O)NC(C)(C)C)[nH]2)c(OC)c1 (stereo unspecified) | -5.842% | 0.1394%
Cn1cncc1CN1CCC2(CC1)COCCN(S(C)(=O)=O)C2.O=C(O)C(F)(F)F | 13.73% | 22.82%
CCN(Cc1ccncc1)Cc1c[nH]nc1-c1ccc(F)cc1 | 1.411% | -27.31%
CC1(C)CN(Cc2ccncc2)CCS1(=O)=O | -11.36% | -6.282%
CCOCC(=O)NC(C)Cc1ccccc1Br (stereo unspecified) | 22.15% | 41.79%
CC(c1ccncc1)N1Cc2nc(N(C)C)ncc2C1=O (stereo unspecified) | -2.375% | 6.264%
COc1cc(OC)nc(N2CCCC(c3nccn3CCN(C)C)C2)n1 (stereo unspecified) | -24.48% | -37.15%
CSc1ccc(CN2CCC(CCC(=O)Nc3ccccc3)CC2)cc1 | -29.15% | -26.4%
CC(C)C1SCC(=O)Nc2c1cnn2-c1ccc(Cl)cc1 (stereo unspecified) | 38.75% | -3.964%
CN(Cc1nccn1C)C(=O)c1cccc(CCC(C)(C)O)c1 | -10.44% | -10.39%
Cn1cc(Cl)c(C(=O)N2CCCN(C3Cc4ccccc4C3)CC2)n1 | -1.385% | 37.72%
CC(C)c1ncc2c(n1)CN(c1ncnc3[nH]ccc13)CC2 | -20.66% | 3.014%
CCCS(=O)(=O)NCC(C)c1ccc(F)c(F)c1 (stereo unspecified) | 19.57% | -9.8%
Cc1cc(C)c2c(N(C)CC3COCCO3)ncnc2n1 (stereo unspecified) | -0.7735% | -4.484%
CCn1cc(CNc2ccc(N(C)CCOC)cn2)cn1 | 7.582% | 57.45%
Cc1cnn(CCNCc2csc(-c3ccccc3)n2)c1 | - | 104.4%
CN1C(=O)C2(CCN(S(=O)(=O)C3CC3)CC2)c2ccccc21 | 21.94% | 1.046%
O=C(c1cc(COc2ccc3c(c2)OCO3)[nH]n1)N1CCCCO1 | 15.85% | -14.29%
Cc1noc(C)c1CN1Cc2ccnn2CC(C(=O)NCC2CC2)C1.O=C(O)C(F)(F)F.O=C(O)C(F)(F)F (stereo unspecified) | 0.6809% | -27.37%
CNc1ncc(CN(C)C(=O)c2cccc(CC3CCNCC3)c2)cn1 | -34.95% | -49.55%
COCCN1CCN(Cc2ccco2)Cc2ccc(C)nc21.O=C(O)C(F)(F)F.O=C(O)C(F)(F)F | 14.71% | -27.91%
COc1cc(C(=O)N(CCC#N)Cc2ccccn2)ccc1C | 2.226% | -31.25%
Cc1nn(-c2ccccc2)c(C)c1CC(=O)NC1CC(=O)N(C)C1 (stereo unspecified) | - | -10.63%
Cc1nc(CC(C)C)cc(C(=O)N2C[C@@H](CN(C)C)[C@@H](CO)C2)n1 | - | -171.3%
COc1ccc(-c2nc(CN3CCc4c(ncn4C)C3)cs2)cc1 | 30.7% | 174%
[H][C@@]12CS(=O)(=O)C[C@]1([H])N(Cc1cnc(C)nc1)CCN2C(=O)N(CC)CC | 31.49% | -0.3209%
CC(C)(O)CN1CCN(C(=O)c2cc3ccccc3c(=O)[nH]2)CC1 | 11.41% | 4.264%
CCOCC1CN(C(=O)c2cccs2)Cc2nn(C)cc21 (stereo unspecified) | 3.993% | -1.838%
Cc1ccc(F)cc1S(=O)(=O)NCc1[nH]ncc1Br | - | 30.69%
CC(C)C(=O)N1CCC2(CN(CC3CCCC3)C2)C1.O=C(O)C(F)(F)F | 5.108% | 6.727%
CCn1ncnc1C(C)NC(=O)C1CCN(Cc2ccco2)CC1 (stereo unspecified) | -5.833% | -5.569%
CC(CCc1ccccc1)N1CCC(C(=O)Nc2ccccn2)CC1 (stereo unspecified) | -4.761% | -14.97%
CS(=O)(=O)CCCOc1cccc(-n2ccnc2)c1 | 13.23% | 5.311%
C=Cc1ccc(C(=O)N2CCCC(Nc3ccccc3)C2)cc1 (stereo unspecified) | 13.81% | -18.81%
CSCCCNC(=O)c1coc(Cn2cnc3ccccc32)n1 | 37.62% | -21.03%
O=C1CSC(c2ccsc2)c2c(n(C3CCOCC3)[nH]c2=O)N1 (stereo unspecified) | - | -5.898%
Cc1noc(C(C)Nc2ccc3oc(=O)[nH]c3c2)n1 (stereo unspecified) | - | 4.832%
Cc1cc2n(n1)CC(CNCc1ccc(-n3ccnc3C)nc1)CN2 (stereo unspecified) | - | -5.216%
COc1cc(CN(C)[C@@H]2COC[C@H]2c2ccc(F)cc2)cc(OC)c1.O=C(O)CC(O)(CC(=O)O)C(=O)O | 20.26% | -14.27%
CS(=O)(=O)N1CCOCC12CCN(c1nncs1)CC2 | 18.55% | 4.607%
COc1ccc(F)cc1C(C)NC(=O)Nc1nnc(C)s1 (stereo unspecified) | 18.26% | -0.8164%
O=C(c1cnccn1)N1CCC2(CCN(Cc3ccsc3)CC2)CC1 | -22.37% | -21.38%
O=C(Cn1ccc2sccc2c1=O)NCCCc1ccccc1 | -11.03% | 10.63%
Cc1ccc(F)c(C(=O)NC2CCC(N3C(=O)CCC3=O)CC2)c1 (stereo unspecified) | 22.6% | 4.594%
Cc1cc(CNC(=O)CC2CCN(C(C)C)CC2)n(C)n1 | -16.56% | -13.16%
Cc1ccccc1-c1cc(NC(=O)Cn2ccccc2=O)n(C)n1 | - | -12.81%
O=C(O)C(F)(F)F.[H][C@@]12COC[C@]1(C(=O)NCCc1cccs1)CN(C)C2 | -5.45% | -11.25%
CCN(C(C)=O)C(c1ccc(Cl)cc1)c1ccccn1 (stereo unspecified) | 6.039% | -10.09%
CCS(=O)(=O)c1ncc(CN(C)CCc2ccccn2)n1CCOC | 13.12% | -1.504%
CCc1nccn1CCCNc1nccc(-c2c(C)nn(C)c2C)n1 | 8.442% | 6.517%
CC/N=c1\nc(NCC)nc2n1C(O)(Nc1cccc(C)c1C)CS2 (stereo unspecified) | 18.18% | 59.58%
O=C(NC1CC(=O)N(C2Cc3ccccc3C2)C1)c1ccoc1 (stereo unspecified) | -78.62% | 10.8%
COCC(=O)N[C@H](C)c1onc(-c2ccc(Cl)cc2)c1C(=O)O | -19.84% | -7.378%

The values are deposited in ChEMBL (CHEMBL3988442, “University of Dundee, Small-Polar-MMV Screening Library” (2021)).